Values from PubChem BioAssay AID1259425 (University of Nebraska Medical Center, 2018).
This is one part, drawn at random, of about 14,000 reagents tested. Not all columns of the deposit are shown. Not stated in the record: the time to read-out.

Purpose: 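Find knockdowns that reproduce the gene expression pattern seen when KSR1 is lost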 (primary screen)
System: HCT116 human colon cancer cells
Knock-down reagent: siRNA pool against human genes, 50 nM siRNA
Detection: 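After 50 nM siRNA pool, branched-DNA assay measures six marker transcripts per well, minus blank, normalised to the geometric mean of two housekeeping transcripts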
Scale: BNIP3L mRNA: higher = more BNIP3L transcript after knockdown; NDRG1 mRNA: higher = more NDRG1 transcript after knockdown

The opening 2 records as a preview:
CYSLTR2 | BNIP3L mRNA, set 1 = 0.258; NDRG1 mRNA, set 1 = 0.348
GCSH | BNIP3L mRNA, set 1 = 0.0497; NDRG1 mRNA, set 1 = 0.0684

The list itself, from the first entry:
CYSLTR2 | BNIP3L mRNA, set 1 = 0.258; NDRG1 mRNA, set 1 = 0.348
GCSH | BNIP3L mRNA, set 1 = 0.0497; NDRG1 mRNA, set 1 = 0.0684
BTBD2 | BNIP3L mRNA, set 1 = 0.0385; NDRG1 mRNA, set 1 = 0.245
RORA | BNIP3L mRNA, set 1 = 0.0708; NDRG1 mRNA, set 1 = 0.2
CFH | BNIP3L mRNA, set 1 = 0.14; NDRG1 mRNA, set 1 = 0.5
FOXO1 | BNIP3L mRNA, set 1 = 0.0419; NDRG1 mRNA, set 1 = 0.126
LRRC23 | BNIP3L mRNA, set 1 = 0.141; NDRG1 mRNA, set 1 = 1.2
KCTD14 | BNIP3L mRNA, set 1 = 0.21; NDRG1 mRNA, set 1 = 0.148
RASA1 | BNIP3L mRNA, set 1 = 0.0934; NDRG1 mRNA, set 1 = 0.126
OR5P3 | BNIP3L mRNA, set 1 = 0.201; NDRG1 mRNA, set 1 = 0.245
PM20D2 | BNIP3L mRNA, set 1 = 0.134; NDRG1 mRNA, set 1 = 0.0999
LHPP | BNIP3L mRNA, set 1 = 0.135; NDRG1 mRNA, set 1 = 0.541
USP5 | BNIP3L mRNA, set 1 = 0.062; NDRG1 mRNA, set 1 = 0.204
GLOD4 | BNIP3L mRNA, set 1 = 0.107; NDRG1 mRNA, set 1 = 0.0881
UBXN4 | BNIP3L mRNA, set 1 = 0.114; NDRG1 mRNA, set 1 = 0.118
ATP5ME | BNIP3L mRNA, set 1 = 0.0957; NDRG1 mRNA, set 1 = 0.259
NECAP2 | BNIP3L mRNA, set 1 = 0.0961; NDRG1 mRNA, set 1 = 0.13
ATP9A | BNIP3L mRNA, set 1 = 0.114; NDRG1 mRNA, set 1 = 0.192
RAPGEF2 | BNIP3L mRNA, set 1 = 0.0614; NDRG1 mRNA, set 1 = 0.363
BCORL1 | BNIP3L mRNA, set 1 = 0.328; NDRG1 mRNA, set 1 = 0.363
HYCC1 | BNIP3L mRNA, set 1 = 0.155; NDRG1 mRNA, set 1 = 0.0725
DCUN1D4 | BNIP3L mRNA, set 1 = 0.0829; NDRG1 mRNA, set 1 = 0.146
BSCL2 | BNIP3L mRNA, set 1 = 0.0806; NDRG1 mRNA, set 1 = 0.377
FUT8 | BNIP3L mRNA, set 1 = 0.114; NDRG1 mRNA, set 1 = 0.118
TTLL12 | BNIP3L mRNA, set 1 = 0.0648; NDRG1 mRNA, set 1 = 0.282
POMZP3 | BNIP3L mRNA, set 1 = 0.215; NDRG1 mRNA, set 1 = 0.22
ZNF750 | BNIP3L mRNA, set 1 = 0.0762; NDRG1 mRNA, set 1 = 0.101
RAB3B | BNIP3L mRNA, set 1 = 0.119; NDRG1 mRNA, set 1 = 0.148
TUFM | BNIP3L mRNA, set 1 = 0.0364; NDRG1 mRNA, set 1 = 0.235
SLC35A5 | BNIP3L mRNA, set 1 = 0.122; NDRG1 mRNA, set 1 = 0.88
ZAP70 | BNIP3L mRNA, set 1 = 0.119; NDRG1 mRNA, set 1 = 0.109
PAK5 | BNIP3L mRNA, set 1 = 0.131; NDRG1 mRNA, set 1 = 0.0383
AICDA | BNIP3L mRNA, set 1 = 0.0909; NDRG1 mRNA, set 1 = 0.0432
GPRC5A | BNIP3L mRNA, set 1 = 0.065; NDRG1 mRNA, set 1 = 0.0937
SPAST | BNIP3L mRNA, set 1 = 0.0795; NDRG1 mRNA, set 1 = 0.268
ST6GALNAC2 | BNIP3L mRNA, set 1 = 0.0573; NDRG1 mRNA, set 1 = 0.228
